Reference: the supplement of paper PMC6078165

Tested on: MDAMB436
Assay: relative JC-1 red fluorescence (viability) vs pre-drug, coculture with fibroblast (fraction); higher = more viable cancer cells
Procedure: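 JC-1 labelled TNBC cells cocultured 1:1 (1,500 cells each) with CellTrace Violet stained primary or stromal fibroblasts in 384-well plates in FluoroBrite medium, treated with one of 42 anticancer drugs at 0.1, 1, 10 or 100 uM. JC-1 red fluorescence (mitochondrial integrity in cancer cells only) was read by plate reader every 8 h for 72 h. Values are normalised to each well's pre-drug value. The stock of one drug was tenfold lower, so its dose labels may be too high.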

CO[C@H]1C[C@@H]2CC[C@@H](C)[C@@](O)(O2)C(=O)C(=O)N2CCCC[C@H]2C(=O)O[C@H]([C@H](C)C[C@@H]2CC[C@@H](OCCO)[C@H](OC)C2)CC(=O)[C@H](C)/C=C(\C)[C@@H](O)[C@@H](OC)C(=O)[C@H](C)C[C@H](C)/C=C/C=C/C=C/1C [Everolimus]
relative JC-1 red fluorescence
Conditions	8 h	16 h	24 h	32 h	40 h	48 h	56 h	64 h	72 h
0.1 µM, coculture fibroblast: C12385	0.78256	0.682	0.646	0.564	0.5151	0.4824	0.4619	0.4437	0.435
0.1 µM, coculture fibroblast: H6013	0.8	0.771	0.765	0.768	0.757	0.795	0.76	0.754	0.725
0.1 µM, coculture fibroblast: H6019	0.6872	0.64	0.606	0.536	0.505	0.496	0.481	0.466	0.452
0.1 µM, coculture fibroblast: H6076	0.717	0.665	0.655	0.613	0.606	0.583	0.597	0.596	0.591
0.1 µM, coculture fibroblast: H6231	0.751	0.65	0.6485	0.567	0.5512	0.517	0.509	0.486	0.473
0.1 µM, coculture fibroblast: HADF	0.8339	0.752	0.739	0.708	0.6959	0.7226	0.6582	0.6528	0.615
0.1 µM, coculture fibroblast: HCFa	0.735	0.664	0.631	0.6	0.566	0.584	0.519	0.51	0.457
0.1 µM, coculture fibroblast: HCPF	0.808	0.708	0.681	0.6068	0.5814	0.549	0.5257	0.504	0.492
0.1 µM, coculture fibroblast: HHSteC	0.879	0.855	0.747	0.702	0.754	0.774	0.652	0.705	0.717
0.1 µM, coculture fibroblast: HMF	0.706	0.658	0.628	0.58	0.565	0.526	0.527	0.51	0.502
0.1 µM, coculture fibroblast: HPFa	0.88	0.79	0.753	0.711	0.686	0.691	0.624	0.606	0.547
0.1 µM, coculture fibroblast: HUF	0.829	0.701	0.662	0.585	0.526	0.496	0.471	0.459	0.449
0.1 µM, coculture fibroblast: Hs5	0.781	0.701	0.691	0.641	0.628	0.586	0.598	0.565	0.56
0.1 µM, coculture fibroblast: Hs27A	0.767	0.676	0.665	0.646	0.632	0.701	0.615	0.603	0.535
0.1 µM, coculture fibroblast: Hs343T	0.7554	0.7	0.669	0.624	0.6091	0.574	0.5708	0.5617	0.5539
0.1 µM, coculture fibroblast: WS1	0.7531	0.6756	0.6366	0.5537	0.52485	0.5021	0.484	0.467	0.455
1 µM, coculture fibroblast: C12385	0.8397	0.78	0.7123	0.6377	0.592	0.572	0.548	0.524	0.519
1 µM, coculture fibroblast: H6013	0.838	0.772	0.748	0.744	0.728	0.751	0.727	0.719	0.689
1 µM, coculture fibroblast: H6019	0.77	0.713	0.6919	0.615	0.5751	0.5551	0.5226	0.492	0.466
1 µM, coculture fibroblast: H6076	0.7725	0.68	0.6708	0.6436	0.6258	0.6053	0.62269	0.6222	0.6239
1 µM, coculture fibroblast: H6231	0.7487	0.679	0.658	0.6108	0.573	0.5421	0.5295	0.5012	0.486
1 µM, coculture fibroblast: HADF	0.88	0.836	0.778	0.758	0.725	0.734	0.685	0.664	0.6159
1 µM, coculture fibroblast: HCFa	0.829	0.767	0.737	0.712	0.678	0.7	0.638	0.635	0.579
1 µM, coculture fibroblast: HCPF	0.79	0.736	0.711	0.67	0.644	0.612	0.588	0.571	0.556
1 µM, coculture fibroblast: HHSteC	0.863	0.829	0.7883	0.774	0.759	0.774	0.716	0.696	0.648
1 µM, coculture fibroblast: HMF	0.77	0.695	0.652	0.612	0.59	0.56	0.563	0.546	0.539
1 µM, coculture fibroblast: HPFa	0.818	0.796	0.947	0.837	0.83	0.942	0.832	0.947	0.904
1 µM, coculture fibroblast: HUF	0.8426	0.7442	0.71	0.634	0.5755	0.5475	0.513	0.501	0.487
1 µM, coculture fibroblast: Hs5	0.832	0.764	0.788	0.739	0.737	0.703	0.718	0.692	0.688
1 µM, coculture fibroblast: Hs27A	0.795	0.746	0.729	0.724	0.704	0.761	0.7	0.694	0.639
1 µM, coculture fibroblast: Hs343T	0.7856	0.719	0.67	0.639	0.608	0.577	0.573	0.555	0.545
1 µM, coculture fibroblast: WS1	0.821	0.736	0.696	0.615	0.572	0.555	0.529	0.505	0.496

Values are relative to the signal before dosing, not to a vehicle control; the signal also falls without drug.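 Fibroblast labels name human fibroblasts: mostly primary ones from tissues such as uterus (C12385, HUF), lung (H6013), bone (Hs27A), adrenal (HADF) and skin (WS1), plus mammary HMF and breast cancer-associated Hs343T. The cancer cells are basal-like or mesenchymal-like triple-negative breast cancer lines. The paper calls a changed response a hit when it shifts by more than 3x the replicate standard deviation. The tissue of the other fibroblasts is not given here.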
